# Experimental data reported in PubChem BioAssay (Tox21).
# Chains of the proteins cited; added tags and fusions are not shown. Lines headed by an entry give the natural chain unless they say otherwise; changes in a name come on top.
# UniProt P19793: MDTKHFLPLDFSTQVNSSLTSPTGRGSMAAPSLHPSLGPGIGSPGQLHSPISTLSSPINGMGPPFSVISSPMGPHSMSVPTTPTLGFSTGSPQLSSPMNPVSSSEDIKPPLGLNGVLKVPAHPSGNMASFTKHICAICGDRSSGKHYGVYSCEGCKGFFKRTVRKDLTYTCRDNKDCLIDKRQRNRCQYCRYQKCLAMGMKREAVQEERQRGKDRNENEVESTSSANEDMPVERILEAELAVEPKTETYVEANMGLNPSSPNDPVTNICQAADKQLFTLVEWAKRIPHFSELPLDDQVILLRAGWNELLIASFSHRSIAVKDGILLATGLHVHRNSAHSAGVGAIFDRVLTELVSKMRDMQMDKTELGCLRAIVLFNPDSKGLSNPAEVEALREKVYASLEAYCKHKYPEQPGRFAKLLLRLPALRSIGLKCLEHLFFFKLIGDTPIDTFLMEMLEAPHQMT
# Where “and” joins values, the source holds several entries; their conditions need not be identical. Equal entries are not always repeated. The inconclusive results got no clear call from the source; some entries with a clear call stand among them for comparison. Where the call is inconclusive, the potency comes from a doubtful curve fit. Some compounds were tested as several samples or in several runs, with calls that do not always agree. Calls of active or inactive are those of the source. Unless noted, calls come from the whole dose curve; as a rule, active = well fitted curve in the direction sought with a large enough effect in the repeat runs; inconclusive = weak or mixed curves; inactive = no such curve, though single readings can be large; an effect the other way counts as inactive or inconclusive.
# Columns and labels:
# [1] = target: Retinoic acid receptor RXR-alpha (Homo sapiens) (UniProt P19793); experiment: qHTS assay to identify small molecule agonists of the RXR signaling pathway (AID 1159527; calls by dose curve; note: nearly all actives have a fitted effect of over 35% in size; for activation: % is set by controls: 0 for no effect and ±100 for the full control effect); settings: HEK293T RXRa-UAS-bla, beta-lactamase ratio, 16 h; activation: at 76.8 µM (top of the series) unless noted
# In short: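 Read-out: beta-lactamase FRET ratio (405 nm excitation, 460 and 530 nm emission) after 2 hr substrate loading at room temperature. Cells were RXR-alpha-UAS-bla HEK 293T treated with compounds for 16 hr in 2% charcoal-stripped FBS medium.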
# [2] = qHTS assay to identify small molecule agonists of the retinoic acid receptor (RAR) signaling pathway (AID 1159553); settings: C3RL4 RARE luciferase reporter, agonist, 6 h; activation: at 73.3 µM (top of the series) unless noted; for activation: % is set by controls: 0 for no effect and ±100 for the full control effect
# In short: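 In this cell-based screen, 1,000 C3RL4 cells per well were cultured overnight, dosed with test chemicals in DMSO for 6 hr, and assessed for RARE luciferase luminescence.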
# [3] = qHTS assay to identify small molecule agonists of the RXR signaling pathway - cell viability counter screen (AID 1159529); note: nearly all actives have a fitted effect of over 50% in size
# In short: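 HEK 293T RXRa-bla cells, 2% CS-FBS; 5 h settle; cpd 16 h 37 C, 5% CO2; CellTiter-Glo 30 min RT, luminescence. Tetraoctyl ammonium bromide as positive control.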
# Potency is the fitted concentration of half-maximal effect.
structure (smiles),measurement,setting,value
Cc1cccc2c1cc1ccc3cccc4ccc2c1c34,Potency,[1],"inconclusive: 50.1 µM [fluorescent, partial curve]"
same,activation,[2],inconclusive: 7.23% [phenotype inactive] [at 94.8 µM]
Oc1ccccc1O,Potency,[1],inactive
same,Potency,[2],"inconclusive: 48.6 µM [activator, partial curve, poor fit]"
O=S(c1cc(Cl)cc(Cl)c1O)c1cc(Cl)cc(Cl)c1O,Potency,[1],inconclusive: 26.8 µM
same,Potency,[2],inactive
CCCCCCN,Potency,[1],inactive
same,Potency,[2],"inconclusive: 77 µM [inhibitor, single point]"
Cc1ccc(O)c(N)c1,activation,[1],inconclusive: -24.5%
same,Potency,[2],active: 21.7 µM
CCCC(=O)OC[C@@H](OC(=O)CCC)[C@@H](OC(=O)CCC)[C@H](Cn1c2nc(=O)[nH]c(=O)c-2nc2cc(C)c(C)cc21)OC(=O)CCC,Potency,[1],inconclusive: 9.52 µM [partial curve]
same,Potency,[2],"inconclusive: 26.6 µM [inhibitor, partial curve]"
CCCCCCCCN(C)CCCCCCCC,Potency,[1],"inconclusive: 19.7 µM [activator, partial curve]"
same,Potency,[2],inactive
COc1ccc(C(=O)/C(Br)=C\C(=O)O)cc1,Potency,[1],inconclusive: 61.6 µM
same,Potency,[2],active: 27.3 µM
CN(C)c1ccc(N=Nc2ccccc2C(=O)O)cc1,Potency,[1],"inconclusive: 24.5 µM [inhibitor, partial curve]"
same,Potency,[2],active: 1.09 µM
c1ccc2[nH]c(-c3cscn3)nc2c1,Potency,[1],active: 1.1 µM
same,Potency,[2],active: 8.69 µM and active: 2.43 µM and active: 5.31 µM
Cc1oc(-c2ccccc2)nc1CCOc1cccc2c1ccn2CCC(=O)O,Potency,[1],active: 17.4 µM
same,Potency,[2],inactive
O=C(O)c1cccc(Cl)n1,activation,[1],inconclusive: -22.1%
same,Potency,[2],"inconclusive: 77 µM [inhibitor, single point]"
CCOC(=O)/C=C(C)/C=C/C=C(C)/C=C/c1c(C)cc(OC)c(C)c1C,Potency,[1],"inconclusive: 19 µM [fluorescent, partial curve]"
same,Potency,[2],active: 0.531 µM
C=CC(=O)OCCCCCCOC(=O)C=C,Potency,[1],"inconclusive: 62.4 µM [fluorescent, partial curve, poor fit] and inconclusive: 27.5 µM [inhibitor]"
same,Potency,[2],"inconclusive: 69.4 µM [activator, single point]"
C#C[C@]1(O)CC[C@H]2[C@@H]3CCc4cc(OC)ccc4[C@H]3CC[C@@]21C,Potency,[3],"inconclusive: 16.9 µM [cytotoxic, partial curve]"
NS(=O)(=O)O,Potency,[3],"inconclusive: 6.4 µM [rising, full curve, poor fit]"
COc1ccc2cc3[n+](cc2c1OC)CCc1cc2c(cc1-3)OCO2,Potency,[3],"inconclusive: 17.5 µM [cytotoxic, partial curve, poor fit] and inconclusive: 9.52 µM [cytotoxic, full curve]"
O=C(CC(=O)C(F)(F)F)c1ccccc1,Potency,[1],inconclusive: 0.0012 µM
same,Potency,[2],active: 22 µM

# Given with tabs: entries from further up.
structure (smiles)	measurement	setting	value
Cc1cccc2c1cc1ccc3cccc4ccc2c1c34	Potency	[1]	inconclusive: 50.1 µM [fluorescent, partial curve]
same	activation	[2]	inconclusive: 7.23% [phenotype inactive] [at 94.8 µM]
Oc1ccccc1O	Potency	[1]	inactive
same	Potency	[2]	inconclusive: 48.6 µM [activator, partial curve, poor fit]
O=S(c1cc(Cl)cc(Cl)c1O)c1cc(Cl)cc(Cl)c1O	Potency	[1]	inconclusive: 26.8 µM
same	Potency	[2]	inactive
CCCCCCN	Potency	[1]	inactive
same	Potency	[2]	inconclusive: 77 µM [inhibitor, single point]
